Whole data set: some 33,000 sequences, median “E-score (-0.5 to 0.5)” near -0.0034, cut for the highest 2% near 0.25. The list shows a part of the results.
Target: T1, Yap3 (UniProt P38749)
T1 sequence: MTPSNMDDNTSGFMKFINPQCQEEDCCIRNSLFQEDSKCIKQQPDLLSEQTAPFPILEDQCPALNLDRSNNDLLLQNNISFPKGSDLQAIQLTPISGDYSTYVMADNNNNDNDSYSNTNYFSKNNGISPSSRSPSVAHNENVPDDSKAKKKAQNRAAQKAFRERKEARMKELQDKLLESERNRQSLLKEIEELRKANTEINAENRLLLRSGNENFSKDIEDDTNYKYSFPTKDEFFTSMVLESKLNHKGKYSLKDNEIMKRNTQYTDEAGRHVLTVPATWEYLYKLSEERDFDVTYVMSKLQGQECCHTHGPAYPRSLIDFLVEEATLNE
Test: PBM E-score (8-mer binding enrichment) (E-score (-0.5 to 0.5)); higher = stronger / more preferred TF binding
Conditions: protein concentration: 100 nM; construct: GST-full length
Experimental: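 Universal 'all 10-mer' protein binding microarrays (Agilent AMADID 015681) probed with GST-tagged S. cerevisiae TFs (full-length or DBD) made by in vitro transcription/translation (PURExpress), about 100-200 nM. Bound TF was detected with fluorescent anti-GST. Each ungapped 8-mer (which stands for itself and its reverse complement) is scored by the PBM enrichment score (E-score), a modified Wilcoxon-Mann-Whitney statistic from -0.5 to +0.5, computed with the Universal PBM Analysis Suite. Scale: above 0.35 generally sequence-specific binding.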

Row | Sequence | PBM E-score
1 | AAGGGTGA | -0.0745
2 | GTGAGCGA | 0.127
3 | AGGCTGAA | -0.133
4 | CGTTACAA | 0.158
5 | GTAACAGA | 0.105
6 | CACTTAGA | 0.116
7 | GGACTCAA | -0.167
8 | ATAACGAG | -0.00176
9 | GGAACGCA | -0.0583
10 | ATATAAAT | 0.242
11 | CAGTGACA | -0.0302
12 | AACCCAAA | 0.0463
13 | ACTAGCTG | -0.00925
14 | GAGCGGCA | -0.125
15 | CAAGCCCC | -0.264
16 | CCCGCGAC | -0.205
17 | AGTTAGCG | 0.185
18 | AGACCGTA | -0.204
19 | TTGAACAA | -0.00027
20 | AAAGTGTA | 0.14
21 | TCGCTTAA | 0.155
22 | ATGCGTGG | -0.117
23 | ACTAGATC | -0.0988
24 | GACCTCGA | 0.11
25 | ACCTAACG | -0.153

Row | Sequence | PBM E-score
26 | ATCCGTGA | 0.0367
27 | ATCTAAGG | 0.0735
28 | CAAGGATC | 0.072
29 | CCCGGCAG | -0.231
30 | ACGAAAGA | 0.159
31 | TGATTGAA | 0.141
32 | CTCGTAAA | 0.00836
33 | CATGTTTC | 0.205
34 | AGGCCCGA | -0.135
35 | ATTTATCA | 0.189
36 | AACTGTCC | 0.052
37 | CACGTGGA | 0.101
38 | CGCCCTAG | -0.147
39 | ATGACGCG | 0.143
40 | CTCACTTA | 0.0133
41 | AAGTCCTC | -0.0807
42 | CAAGCTCA | -0.158
43 | AGCGGTGG | -0.2
44 | CGATTATA | 0.154
45 | AATCCTGT | 0.121
46 | CCTCACCG | -0.274
47 | CCCCCGAC | -0.268
48 | CGAATAAC | 0.15
49 | ACCGAGGT | -0.225
50 | GAGCCAGC | -0.184

Row | Sequence | PBM E-score
51 | GTGTTCAA | 0.0155
52 | AGTGCTCA | -0.165
53 | ACTTTAAA | 0.168
54 | AGACGTGG | -0.168
55 | AAAGCGGC | 0.0828
56 | CGAAGTTA | 0.157
57 | CTCTCTTA | -0.0535
58 | ACTTTTCC | 0.155
59 | GGTATACC | 0.12
60 | CACCGAGC | 0.0303
61 | CCATGCAC | -0.17
62 | GGGGACCA | -0.136
63 | AGTGTTCC | 0.065
64 | TATGAGCA | -0.0583
65 | ATAGAGAG | -0.216
66 | TGTTGCAA | 0.187
67 | CTTATGAC | 0.144
68 | GAATTCGA | 0.005
69 | CGTTATTC | 0.0755
70 | GCTGAGAA | 0.00157
71 | AGCATGTA | 0.0181
72 | AGGAAAAG | 0.0912
73 | CCCTCTGA | -0.222
74 | GTCTGTCA | 0.0703
75 | GTTCAGCA | -0.0106

Row | Sequence | PBM E-score
76 | CATCGTCA | 0.0115
77 | GTGGGCCA | 0.00779
78 | GATGACAC | 0.132
79 | CAACGATG | -0.0278
80 | ACGCCCGC | -0.0787
81 | AACTTTCG | 0.0282
82 | AATGGATA | 0.0425
83 | ATCGAGGC | 0.0376
84 | ACAGCTCT | -0.259
85 | AACAGTAA | 0.144
86 | AATCTGCG | -0.0221
87 | ACTAGAGT | -0.0534
88 | CCCTTTAC | 0.00491
89 | AAAAAGTA | 0.204
90 | ACTGTTAA | 0.155
91 | CTCTAGAG | -0.193
92 | ACTGCGAC | 0.0458
93 | TATATTAA | 0.315
94 | ACACGTGA | 0.147
95 | CTAGGTAA | -0.0173
96 | TAACTCGA | 0.217
97 | AACTTGTC | 0.0823
98 | CAGTAGCG | -0.104
99 | ACCGCTAG | -0.0863
100 | AAACGAGG | -0.0716

Another view of some results above.

| Row | Sequence | PBM E-score |
| --- | --- | --- |
| 82 | AATGGATA | 0.0425 |
| 86 | AATCTGCG | -0.0221 |
| 92 | ACTGCGAC | 0.0458 |
| 100 | AAACGAGG | -0.0716 |

Next part.

Row | Sequence | PBM E-score
101 | AATCGCGG | 0.0657
102 | GGTCCAAC | -0.215
103 | GATGTACA | 0.168
104 | GACTGAAC | -0.104
105 | CGTCAGGA | 0.00686
106 | AAAGGAGT | 0.0256
107 | ACCTGGTG | -0.307
108 | AGATGTAT | 0.13
109 | ACAGAATC | -0.00878
110 | CACCTGCC | -0.0678
111 | AAAACCTT | -0.0773
112 | GACAAGAA | 0.127
113 | CAAGGTTC | -0.224
114 | CCCAACTC | 0.0817
115 | GACGTCGC | -0.0943
116 | CATGGGCC | -0.116
117 | ATTACAGC | -0.046
118 | CGCCAGAG | -0.118
119 | CTGCAAAA | 0.0159
120 | AACGCGAT | 0.0957
121 | ATTAGAAT | 0.126
122 | ACGCATTG | -0.00378
123 | GATCGTAA | 0.0365
124 | AAAAGATG | 0.123
125 | CAGAACCA | -0.04

Row | Sequence | PBM E-score
126 | CCGAGATC | -0.0186
127 | GGGTGGAA | -0.0404
128 | GGTCGTAC | -0.178
129 | TATTAAAA | 0.217
130 | GAAGACTC | -0.0994
131 | CATTAGGA | 0.051
132 | ATATATCC | 0.242
133 | CCCTTCCG | -0.213
134 | AGGTAGAT | -0.0907
135 | ACCGCGGT | 0.0694
136 | GGAAGTAC | 0.0054
137 | ATATCGGC | 0.0525
138 | CTATCCTC | 0.00708
139 | TACCAGTA | 0.0609
140 | GTCCCGAC | -0.192
141 | ACCGACGA | -0.0888
142 | GTGCTGAA | -0.163
143 | AATATGTG | 0.273
144 | TCAGCGGA | 0.0247
145 | CATTCATC | 0.0469
146 | CGAAAACG | -0.0141
147 | GTGTGGGA | 0.109
148 | CCTTATAA | 0.169
149 | CGTCAAAG | -0.00136
150 | CGTTTCAG | 0.0999

Records 141–144, quoted:
Row | Sequence | PBM E-score
141 | ACCGACGA | -0.0888
142 | GTGCTGAA | -0.163
143 | AATATGTG | 0.273
144 | TCAGCGGA | 0.0247

Later entries.

Row | Sequence | PBM E-score
151 | AGCATGAG | 0.132
152 | CATTTACC | 0.21
153 | CACAGTCA | -0.112
154 | ACGTACCC | 0.104
155 | AGGATTAT | -0.123
156 | CAGGCATC | -0.133
157 | CCAAAAGC | -0.116
158 | AGCATACC | 0.118
159 | ACAGTACC | -0.0947
160 | ACAACTCG | 0.0431
161 | ATCGAACC | 0.122
162 | CGGATGGA | 0.0708
163 | AATGATCT | 0.0958
164 | GCCTTATA | -0.0672
165 | AAAGAAAG | 0.231
166 | AATTCTCA | 0.0354
167 | AGCGACCT | -0.138
168 | GCTAGTCC | -0.176
169 | AGACGACC | -0.0822
170 | AGCTCTGA | -0.181
171 | AATAGCAT | 0.11
172 | ACTTTCGC | 0.00931

— the supplement of paper PMC3334620
